The text below walks through data of the supplement of paper PMC11732987, “Enantioselective OTUD7B fragment discovery through chemoproteomics screening and high-throughput optimisation” (Communications Chemistry, 2025).

By UniProt entry, the sequences of proteins in these tests, tags left out. Where a name states a change or a piece, a line headed by the entry shows the natural chain unless it says otherwise. Residues count along the entry.
UniProt Q7Z6M4: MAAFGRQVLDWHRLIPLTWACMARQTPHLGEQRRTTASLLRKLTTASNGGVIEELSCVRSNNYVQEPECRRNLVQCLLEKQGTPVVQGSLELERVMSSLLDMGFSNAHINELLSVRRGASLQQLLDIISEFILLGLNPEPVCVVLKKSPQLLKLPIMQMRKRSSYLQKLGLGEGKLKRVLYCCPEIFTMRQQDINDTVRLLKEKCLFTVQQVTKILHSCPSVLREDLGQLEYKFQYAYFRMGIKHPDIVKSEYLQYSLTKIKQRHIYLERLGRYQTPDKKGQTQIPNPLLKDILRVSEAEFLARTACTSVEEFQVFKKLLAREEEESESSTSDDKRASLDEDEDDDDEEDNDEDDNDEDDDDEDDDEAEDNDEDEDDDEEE
UniProt Q9C0I1: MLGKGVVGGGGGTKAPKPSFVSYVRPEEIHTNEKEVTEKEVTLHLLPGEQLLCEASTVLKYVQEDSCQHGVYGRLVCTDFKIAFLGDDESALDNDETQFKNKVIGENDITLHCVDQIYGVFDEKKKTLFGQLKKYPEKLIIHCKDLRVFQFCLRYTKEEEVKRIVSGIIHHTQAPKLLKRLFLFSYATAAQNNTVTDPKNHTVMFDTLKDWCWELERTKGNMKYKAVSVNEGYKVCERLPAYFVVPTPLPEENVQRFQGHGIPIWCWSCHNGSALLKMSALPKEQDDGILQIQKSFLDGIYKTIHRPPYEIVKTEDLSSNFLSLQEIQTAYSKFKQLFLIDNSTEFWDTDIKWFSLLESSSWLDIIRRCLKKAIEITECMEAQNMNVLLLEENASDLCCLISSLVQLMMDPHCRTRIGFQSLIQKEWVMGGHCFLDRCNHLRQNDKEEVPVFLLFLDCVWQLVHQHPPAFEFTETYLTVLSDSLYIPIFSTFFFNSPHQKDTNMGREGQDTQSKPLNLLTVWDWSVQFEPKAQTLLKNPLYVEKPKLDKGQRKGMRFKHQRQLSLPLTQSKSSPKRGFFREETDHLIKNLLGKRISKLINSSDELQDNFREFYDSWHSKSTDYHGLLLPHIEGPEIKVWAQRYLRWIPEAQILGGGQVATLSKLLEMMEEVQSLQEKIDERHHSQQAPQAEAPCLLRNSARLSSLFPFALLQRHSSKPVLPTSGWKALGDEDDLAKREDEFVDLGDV
UniProt Q9Y2Z2: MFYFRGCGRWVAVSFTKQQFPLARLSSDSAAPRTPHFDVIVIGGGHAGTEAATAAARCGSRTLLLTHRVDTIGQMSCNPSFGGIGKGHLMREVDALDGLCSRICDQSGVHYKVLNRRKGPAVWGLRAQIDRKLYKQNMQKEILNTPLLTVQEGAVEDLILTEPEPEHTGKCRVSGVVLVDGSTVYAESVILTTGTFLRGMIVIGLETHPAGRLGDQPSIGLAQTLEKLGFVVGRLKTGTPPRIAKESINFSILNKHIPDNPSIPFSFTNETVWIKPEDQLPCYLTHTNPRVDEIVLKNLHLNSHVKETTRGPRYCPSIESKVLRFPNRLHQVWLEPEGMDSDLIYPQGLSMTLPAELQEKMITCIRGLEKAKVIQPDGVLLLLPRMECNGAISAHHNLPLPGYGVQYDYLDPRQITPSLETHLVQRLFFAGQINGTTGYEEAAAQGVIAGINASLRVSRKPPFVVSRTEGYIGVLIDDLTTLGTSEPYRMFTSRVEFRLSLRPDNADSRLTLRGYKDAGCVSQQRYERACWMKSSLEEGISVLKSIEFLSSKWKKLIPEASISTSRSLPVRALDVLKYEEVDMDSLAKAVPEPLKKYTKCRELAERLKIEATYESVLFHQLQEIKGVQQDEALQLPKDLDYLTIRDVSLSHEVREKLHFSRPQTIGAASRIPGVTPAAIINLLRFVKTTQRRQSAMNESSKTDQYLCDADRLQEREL
UniProt P35580: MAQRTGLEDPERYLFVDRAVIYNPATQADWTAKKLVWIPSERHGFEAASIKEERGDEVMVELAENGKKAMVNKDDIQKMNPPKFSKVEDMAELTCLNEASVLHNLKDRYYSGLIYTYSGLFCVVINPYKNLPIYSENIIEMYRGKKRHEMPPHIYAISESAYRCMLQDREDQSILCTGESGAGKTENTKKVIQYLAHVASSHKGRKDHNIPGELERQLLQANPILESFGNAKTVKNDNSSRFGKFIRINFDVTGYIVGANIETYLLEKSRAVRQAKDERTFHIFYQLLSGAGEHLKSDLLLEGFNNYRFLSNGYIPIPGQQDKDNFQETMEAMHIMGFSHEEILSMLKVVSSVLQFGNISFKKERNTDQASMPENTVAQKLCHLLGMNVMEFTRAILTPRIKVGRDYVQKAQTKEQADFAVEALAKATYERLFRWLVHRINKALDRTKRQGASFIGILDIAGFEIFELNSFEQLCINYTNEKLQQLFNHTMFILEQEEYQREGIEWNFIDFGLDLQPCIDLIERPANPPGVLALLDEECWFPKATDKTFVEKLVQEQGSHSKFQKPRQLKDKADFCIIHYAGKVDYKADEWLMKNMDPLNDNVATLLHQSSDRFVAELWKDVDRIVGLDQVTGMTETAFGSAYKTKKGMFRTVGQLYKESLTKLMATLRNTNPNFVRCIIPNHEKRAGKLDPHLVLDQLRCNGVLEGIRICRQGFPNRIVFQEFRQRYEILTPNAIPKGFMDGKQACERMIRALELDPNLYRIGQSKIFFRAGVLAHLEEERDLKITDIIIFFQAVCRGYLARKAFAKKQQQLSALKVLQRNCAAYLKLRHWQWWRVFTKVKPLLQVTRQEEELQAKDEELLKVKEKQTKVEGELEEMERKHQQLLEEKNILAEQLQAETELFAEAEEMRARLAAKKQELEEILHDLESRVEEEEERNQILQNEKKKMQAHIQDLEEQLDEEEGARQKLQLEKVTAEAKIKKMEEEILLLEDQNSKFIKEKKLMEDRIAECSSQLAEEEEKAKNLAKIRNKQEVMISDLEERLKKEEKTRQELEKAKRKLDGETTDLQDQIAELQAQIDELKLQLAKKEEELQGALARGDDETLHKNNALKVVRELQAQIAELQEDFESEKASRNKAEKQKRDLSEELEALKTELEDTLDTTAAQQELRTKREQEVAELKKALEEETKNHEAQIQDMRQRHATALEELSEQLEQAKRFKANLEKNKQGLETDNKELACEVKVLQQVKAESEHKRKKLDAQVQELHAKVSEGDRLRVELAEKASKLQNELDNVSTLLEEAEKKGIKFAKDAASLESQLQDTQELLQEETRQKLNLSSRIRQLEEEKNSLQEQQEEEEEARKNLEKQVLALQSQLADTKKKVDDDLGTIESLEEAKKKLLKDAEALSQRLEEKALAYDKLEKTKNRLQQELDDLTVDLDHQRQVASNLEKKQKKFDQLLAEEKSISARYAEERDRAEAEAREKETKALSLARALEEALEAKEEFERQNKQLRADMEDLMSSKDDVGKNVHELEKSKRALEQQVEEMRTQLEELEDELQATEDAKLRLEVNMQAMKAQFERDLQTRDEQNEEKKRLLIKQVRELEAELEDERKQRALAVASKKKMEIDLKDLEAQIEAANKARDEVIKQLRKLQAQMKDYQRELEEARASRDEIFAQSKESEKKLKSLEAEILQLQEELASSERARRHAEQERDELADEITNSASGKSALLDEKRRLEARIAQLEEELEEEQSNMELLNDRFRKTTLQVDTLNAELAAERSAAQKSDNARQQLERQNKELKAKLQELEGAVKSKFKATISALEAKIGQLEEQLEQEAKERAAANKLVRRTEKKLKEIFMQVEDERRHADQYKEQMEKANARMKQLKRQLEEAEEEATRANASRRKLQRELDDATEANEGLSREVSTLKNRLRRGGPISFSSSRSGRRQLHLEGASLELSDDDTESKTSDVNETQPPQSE
UniProt Q765P7, 610-632: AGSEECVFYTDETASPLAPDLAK
UniProt Q9BQG0: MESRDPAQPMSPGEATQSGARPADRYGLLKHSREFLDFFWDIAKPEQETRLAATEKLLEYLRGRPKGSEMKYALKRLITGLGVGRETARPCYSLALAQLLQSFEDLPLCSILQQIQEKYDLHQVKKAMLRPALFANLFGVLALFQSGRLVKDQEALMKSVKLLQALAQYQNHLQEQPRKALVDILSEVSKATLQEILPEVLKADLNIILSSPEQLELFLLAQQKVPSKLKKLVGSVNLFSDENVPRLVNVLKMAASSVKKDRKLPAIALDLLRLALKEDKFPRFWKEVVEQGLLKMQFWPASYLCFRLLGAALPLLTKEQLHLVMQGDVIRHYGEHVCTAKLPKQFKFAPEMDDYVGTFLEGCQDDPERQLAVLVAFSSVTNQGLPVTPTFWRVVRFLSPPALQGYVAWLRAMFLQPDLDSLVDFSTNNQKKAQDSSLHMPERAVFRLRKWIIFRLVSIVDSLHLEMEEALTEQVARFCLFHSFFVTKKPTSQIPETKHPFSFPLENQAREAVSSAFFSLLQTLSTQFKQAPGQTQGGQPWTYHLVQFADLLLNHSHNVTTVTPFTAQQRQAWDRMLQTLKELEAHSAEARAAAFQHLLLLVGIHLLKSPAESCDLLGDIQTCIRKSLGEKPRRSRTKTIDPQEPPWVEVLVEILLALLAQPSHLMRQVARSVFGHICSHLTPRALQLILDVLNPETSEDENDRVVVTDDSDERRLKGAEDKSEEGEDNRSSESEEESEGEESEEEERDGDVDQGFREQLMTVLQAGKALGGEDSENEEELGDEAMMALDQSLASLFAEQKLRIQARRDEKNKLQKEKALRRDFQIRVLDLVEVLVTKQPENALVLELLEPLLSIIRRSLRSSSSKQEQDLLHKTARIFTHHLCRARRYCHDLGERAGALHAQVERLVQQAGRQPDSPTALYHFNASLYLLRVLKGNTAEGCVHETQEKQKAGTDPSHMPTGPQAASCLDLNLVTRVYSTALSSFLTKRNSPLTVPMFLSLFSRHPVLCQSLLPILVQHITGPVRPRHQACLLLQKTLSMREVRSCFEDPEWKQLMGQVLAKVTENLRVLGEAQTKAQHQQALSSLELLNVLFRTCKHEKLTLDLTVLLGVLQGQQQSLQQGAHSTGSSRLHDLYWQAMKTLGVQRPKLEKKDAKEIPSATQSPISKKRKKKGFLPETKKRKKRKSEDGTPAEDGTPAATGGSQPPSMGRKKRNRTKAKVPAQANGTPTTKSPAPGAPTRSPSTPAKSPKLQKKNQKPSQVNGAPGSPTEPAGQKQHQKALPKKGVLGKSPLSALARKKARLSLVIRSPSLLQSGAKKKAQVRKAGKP
UniProt O94832: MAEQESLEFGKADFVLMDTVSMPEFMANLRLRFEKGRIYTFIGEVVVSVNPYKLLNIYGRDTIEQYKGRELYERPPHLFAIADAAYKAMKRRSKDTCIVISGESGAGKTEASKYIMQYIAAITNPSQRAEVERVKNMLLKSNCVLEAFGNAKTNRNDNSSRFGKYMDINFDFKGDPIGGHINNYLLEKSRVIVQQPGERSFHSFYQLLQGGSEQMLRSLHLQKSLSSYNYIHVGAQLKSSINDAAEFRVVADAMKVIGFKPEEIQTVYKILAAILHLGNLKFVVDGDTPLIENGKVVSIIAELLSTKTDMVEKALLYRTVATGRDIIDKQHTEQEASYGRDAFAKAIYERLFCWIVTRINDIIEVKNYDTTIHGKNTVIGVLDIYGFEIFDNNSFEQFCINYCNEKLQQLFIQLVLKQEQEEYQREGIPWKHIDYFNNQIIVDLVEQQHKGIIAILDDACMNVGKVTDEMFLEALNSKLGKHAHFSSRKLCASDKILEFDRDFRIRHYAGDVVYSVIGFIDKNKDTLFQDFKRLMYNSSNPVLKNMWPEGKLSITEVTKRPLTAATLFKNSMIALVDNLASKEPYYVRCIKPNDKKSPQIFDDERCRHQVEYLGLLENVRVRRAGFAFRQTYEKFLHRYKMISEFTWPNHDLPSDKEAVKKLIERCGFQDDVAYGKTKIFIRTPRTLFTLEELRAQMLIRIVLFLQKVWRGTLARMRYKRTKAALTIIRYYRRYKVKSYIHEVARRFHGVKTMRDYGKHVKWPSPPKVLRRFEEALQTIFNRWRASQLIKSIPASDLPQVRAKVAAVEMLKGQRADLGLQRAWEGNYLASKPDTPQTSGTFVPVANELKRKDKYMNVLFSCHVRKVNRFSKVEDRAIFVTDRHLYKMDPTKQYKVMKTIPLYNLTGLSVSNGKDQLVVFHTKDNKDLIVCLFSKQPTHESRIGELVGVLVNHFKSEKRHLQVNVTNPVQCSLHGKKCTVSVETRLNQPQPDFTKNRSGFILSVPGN
UniProt Q969V5: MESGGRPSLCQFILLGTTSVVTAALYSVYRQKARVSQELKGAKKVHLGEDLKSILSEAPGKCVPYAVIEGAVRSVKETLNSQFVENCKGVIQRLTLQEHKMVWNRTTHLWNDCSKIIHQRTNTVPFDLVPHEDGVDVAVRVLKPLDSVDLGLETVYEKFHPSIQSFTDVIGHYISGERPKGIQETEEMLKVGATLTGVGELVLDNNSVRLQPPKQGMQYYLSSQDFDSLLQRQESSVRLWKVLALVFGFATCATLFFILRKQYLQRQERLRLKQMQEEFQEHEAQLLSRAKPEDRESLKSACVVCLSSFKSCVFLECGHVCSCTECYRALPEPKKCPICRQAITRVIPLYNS

This is one part of the list. The data scatter; read single values as rough.

Compound in one experiment: ClCC(=O)N[C@@H]1CCCc2ccccc12
Description: log2 mean competition ratio of IA-DTB cysteine labelling (DMSO/compound) (log2 ratio); higher = stronger cysteine engagement by compound. The settings on record: 50 µM; treatment time: 4 h; cell line lysate: HEK293T. As for the experimental part: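 IA-DTB competitive cysteine chemoproteomics in HEK293T RIPA lysate. Lysates were treated with compound 29 or 30 at 50 or 200 µM for 4 h, then IA-DTB (500 µM, 1 h), trypsin-digested, NeutrAvidin-enriched and analysed by diaPASEF. Competition ratio = intensity DMSO / intensity compound (n=4 treated, n=64 DMSO); binding: mean log2 CR ≥ 1 and p ≤ 0.05 plus QC filters. Target is the cysteine site.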
Regarding MTERF4 C76 (UniProt Q7Z6M4), the “log2 mean competition ratio” value is -0.0685.
The same measure, in the same setting: the figure for NAA15 C214 is -0.26; for MSH2 C404 (UniProt P43246) it is -0.121.
For MYO1B C641 (UniProt O43795), the “log2 mean competition ratio” value was -0.103.
Still for that read-out and setting: the figure for MTMR12 C67 (UniProt Q9C0I1) is 0.00864.
For the target MTO1 C100 (UniProt Q9Y2Z2), the “log2 mean competition ratio” value was -0.101.
Still for that read-out and setting: the figure for MTO1 C104 (UniProt Q9Y2Z2) is 0.148; for MYH10 C1238 (UniProt P35580) it is -0.417.
Same read-out and setting: the figure for MTSS2 C615 (UniProt Q765P7) is -0.513; for MTARC1 C300 it is -0.093.
The same measure, in the same setting: the figure for MYBBP1A C890 (UniProt Q9BQG0) is 0.0272.
Turning to MRPS18A C186 (UniProt Q9NVS2), the “log2 mean competition ratio” value was determined as 0.332.
The same measure, in the same setting: the figure for MYO1D C143 (UniProt O94832) is 0.0652; for MTARC2 C299 it is -0.0141.
On the same count and under the same terms, the figure for NAP1L1 C88 is -0.0331; for MRPS18C C100 (UniProt Q9Y3D5) it is 0.0363.
Same read-out and setting: the figure for MYO6 C587 (UniProt Q9UM54) is -0.17.
Turning to MTR C812 (UniProt Q99707), the “log2 mean competition ratio” value is 0.0558.
The same measure, in the same setting: the figure for MUL1 C113 (UniProt Q969V5) is 0.000956; for MYO1D C977 (UniProt O94832) it is -0.0432.

The experiment is the same for the next values; noted with them: 200 µM; treatment time: 4 h; cell line lysate: HEK293T.
For the target MTERF4 C76 (UniProt Q7Z6M4), the “log2 mean competition ratio” value amounted to 0.144.
Turning to NAA15 C214, the “log2 mean competition ratio” value is -0.16.
On the same count and under the same terms, the figure for MSH2 C404 (UniProt P43246) is 0.111.
MYO1B C641 (UniProt O43795): the “log2 mean competition ratio” value worked out at 0.367.
On the same count and under the same terms, the figure for MTMR12 C67 (UniProt Q9C0I1) is -0.495; for MTO1 C100 (UniProt Q9Y2Z2) it is 0.271; for MTO1 C104 (UniProt Q9Y2Z2) it is 0.104.
On the same count and under the same terms, the figure for MYH10 C1238 (UniProt P35580) is -0.144; for MTSS2 C615 (UniProt Q765P7) it is -0.384; for MTARC1 C300 it is 0.0103.
Still for that read-out and setting: the figure for MYBBP1A C890 (UniProt Q9BQG0) is 0.00568; for MRPS18A C186 (UniProt Q9NVS2) it is 0.173; for MYO1D C143 (UniProt O94832) it is 0.0365.
Consider MTARC2 C299, for which the “log2 mean competition ratio” value was -0.0349.
For NAP1L1 C88, the “log2 mean competition ratio” value was -0.292.
For MRPS18C C100 (UniProt Q9Y3D5), the “log2 mean competition ratio” value was -0.376.
Regarding MYO6 C587 (UniProt Q9UM54), the “log2 mean competition ratio” value is -0.197.
On the same count and under the same terms, the figure for MTR C812 (UniProt Q99707) is 0.309.
In the case of MUL1 C113 (UniProt Q969V5), the “log2 mean competition ratio” value worked out at 0.052.
On the same count and under the same terms, the figure for MYO1D C977 (UniProt O94832) is 0.132.
